The record followed here is publication PMC7862700.

By UniProt entry, the sequences of proteins in these tests, tags left out. Where a name states a change or a piece, a line headed by the entry shows the natural chain unless it says otherwise.
UniProt Q9Y603: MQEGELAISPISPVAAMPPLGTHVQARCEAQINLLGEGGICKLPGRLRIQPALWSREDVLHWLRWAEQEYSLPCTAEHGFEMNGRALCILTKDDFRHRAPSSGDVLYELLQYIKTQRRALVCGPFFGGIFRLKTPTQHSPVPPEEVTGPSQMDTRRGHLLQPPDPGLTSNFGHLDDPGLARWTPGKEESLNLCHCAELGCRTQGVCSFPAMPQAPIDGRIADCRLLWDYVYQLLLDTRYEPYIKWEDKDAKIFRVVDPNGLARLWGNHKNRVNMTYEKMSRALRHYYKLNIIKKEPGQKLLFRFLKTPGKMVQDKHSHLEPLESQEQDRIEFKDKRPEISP
UniProt P41212: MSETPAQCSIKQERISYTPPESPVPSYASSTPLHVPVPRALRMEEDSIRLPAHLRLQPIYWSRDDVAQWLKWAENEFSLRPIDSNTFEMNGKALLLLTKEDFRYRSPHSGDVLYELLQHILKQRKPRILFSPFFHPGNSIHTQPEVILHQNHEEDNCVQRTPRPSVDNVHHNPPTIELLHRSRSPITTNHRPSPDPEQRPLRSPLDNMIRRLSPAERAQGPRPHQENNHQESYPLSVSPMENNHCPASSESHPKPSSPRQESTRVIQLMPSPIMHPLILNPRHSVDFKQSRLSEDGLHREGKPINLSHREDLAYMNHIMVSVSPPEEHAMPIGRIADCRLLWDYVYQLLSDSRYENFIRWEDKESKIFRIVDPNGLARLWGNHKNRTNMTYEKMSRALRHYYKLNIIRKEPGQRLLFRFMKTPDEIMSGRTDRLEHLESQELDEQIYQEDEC

The list shows a part of the results, in another mix than the full data. At the low end of the ranking, values are background and their order means little.

Test in all cases: DAPPL (digital affinity profiling via proximity ligation, sequencing)
Common to all, as to conditions: 10 mM Tris-HCl pH 7.5, 50 mM NaCl, 1 mM DTT, 4% glycerol, room temperature, 30 min; GST-TFs on glutathione beads, 16-mer random dsDNA library, 0.1% …; high values mean tight binding; double strand, one strand shown; scale: fold enrichment (6-mer frequency, TF over GST control)

The target in one test is T1, ELF3 (UniProt P78545).
T1 sequence: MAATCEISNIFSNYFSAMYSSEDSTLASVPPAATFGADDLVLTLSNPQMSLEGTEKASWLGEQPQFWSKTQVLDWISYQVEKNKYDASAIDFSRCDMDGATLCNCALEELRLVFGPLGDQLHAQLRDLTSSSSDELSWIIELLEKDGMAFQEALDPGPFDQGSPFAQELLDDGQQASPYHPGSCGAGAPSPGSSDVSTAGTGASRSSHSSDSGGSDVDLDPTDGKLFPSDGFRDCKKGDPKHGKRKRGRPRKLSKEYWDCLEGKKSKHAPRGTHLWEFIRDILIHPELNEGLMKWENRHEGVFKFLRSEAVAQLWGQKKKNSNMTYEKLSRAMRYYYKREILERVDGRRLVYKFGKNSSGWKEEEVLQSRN

The target in a further test is ETV7 (UniProt Q9Y603).
Another test deals with ETV6 (UniProt P41212).

For the sequence GAAGAC, the binding signal was found to be 0.925 with ELF3, 0.928 with ETV7 and 0.879 in the test with ETV6.
In the case of TCAGCG, the binding signal with ELF3 amounted to 0.986; with ETV7, 0.825; in the test with ETV6, 0.715.
Regarding ACGGAG, the values for the binding signal with ELF3, with ETV7 and in the test with ETV6 were 0.328, 0.393 and 0.356, respectively.
As for GGTCCG, the binding signal with ELF3 was determined as 0.67; in the test with ETV7, 0.761; with ETV6, 0.772.
The corresponding values for GGGGCG are 0.753, 0.638 and 0.714.
The corresponding values for GTTGAG are 0.72, 0.547 and 0.676.
For ATCGGC the same measures were 0.687, 0.664 and 0.635.
Consider CGAGCG, for which the binding signal with ELF3 amounted to 0.972; with ETV7 it was 0.973; with ETV6, 0.893.
As for GGGAGT, the binding signal with ELF3 came out at 0.219; in the test with ETV7 it was 0.277; in the test with ETV6 it was 0.232.
Take TCGGGG: the binding signal in the test with ELF3 was 0.329; with ETV7 it was 0.481; with ETV6, 0.398.
In the case of TTGTCG, the binding signal with ELF3 was 0.769; with ETV7 it was 0.853; with ETV6, 0.859.
The corresponding values for GCCGTA are 0.679, 0.839 and 0.845.
The corresponding values for GCGAGC are 0.829, 0.839 and 0.85.
As for TGAGTT, the binding signal came to 0.415 with ELF3, 0.489 with ETV7 and 0.426 with ETV6.
For GGACGC the same measures were 0.355, 0.373 and 0.367.
In the case of AGGCGG, the binding signal is 0.264 with ELF3, 0.351 with ETV7 and 0.254 with ETV6.
As to TACCAG, the binding signal was found to be 0.879 with ELF3, 0.878 in the test with ETV7 and 0.854 with ETV6.
The corresponding values for CAAGCG are 0.903, 0.887 and 0.875.
The corresponding values for CGGTTG are 0.701, 0.757 and 0.802.
The corresponding values for CGTCGT are 0.818, 0.874 and 0.905.
Turning to CCAGGT, the figures for the binding signal with ELF3, with ETV7 and with ETV6 were 0.76, 0.741 and 0.701, respectively.
AGCGTG: the binding signal worked out at 0.426 with ELF3, 0.394 with ETV7 and 0.354 in the test with ETV6.
The corresponding values for GTGAAT are 0.795, 0.851 and 0.78.
Regarding TGTGTG, the binding signal with ELF3 stood at 0.945; in the test with ETV7 it was 0.851; in the test with ETV6 it was 0.749.
As to GCACCA, the binding signal with ELF3 is 0.909; with ETV7, 0.831; with ETV6, 0.878.
The corresponding values for CGCAGA are 0.911, 0.807 and 0.786.
For GACAAG the same measures were 0.796, 0.762 and 0.835.
The corresponding values for ACTAGT are 0.846, 0.893 and 0.896.
Take GGGCGG: the binding signal is 0.459 with ELF3, 0.534 with ETV7 and 0.445 with ETV6.
For GCCCGT the same measures were 0.618, 0.704 and 0.669.
For CGTAGT the same measures were 0.941, 0.902 and 0.742.
Take GGGGGT: the binding signal in the test with ELF3 was determined as 0.596; in the test with ETV7, 0.672; with ETV6, 0.475.
The corresponding values for GTAAGT are 0.859, 0.815 and 0.843.
For the sequence GAACGA, the binding signal in the test with ELF3 is 0.667; with ETV7, 0.776; with ETV6, 0.75.
For GGGTAC the same measures were 0.942, 1 and 0.947.
The corresponding values for GAGAGA are 0.478, 0.464 and 0.379.
On to AGTCGG, for which the binding signal with ELF3 was found to be 0.139; with ETV7 it was 0.219; with ETV6, 0.146.
With GCCGGG, the figures for the binding signal with ELF3, with ETV7 and in the test with ETV6 were 0.438, 0.455 and 0.406, respectively.
For the sequence CGGCAG, the binding signal came to 0.868 in the test with ELF3, 0.743 in the test with ETV7 and 0.861 with ETV6.
The corresponding values for AGCCGT are 0.559, 0.527 and 0.485.
As for CATAGG, the binding signal with ELF3 is 0.879; with ETV7, 0.781; with ETV6 it was 0.682.
The corresponding values for TGAGCC are 0.959, 0.886 and 0.805.
As for GGGTTG, the binding signal with ELF3 came out at 0.805; with ETV7, 0.875; with ETV6, 0.788.
The corresponding values for CACAGG are 0.945, 0.977 and 0.882.
The corresponding values for GGAACG are 0.566, 0.685 and 0.594.
Regarding CTGGAG, the binding signal came out at 0.675 in the test with ELF3, 0.642 in the test with ETV7 and 0.655 with ETV6.
The corresponding values for ACGAGT are 0.776, 0.758 and 0.788.
For GGAGGA the same measures were 0.269, 0.281 and 0.265.
For GGGTCA the same measures were 0.745, 0.734 and 0.73.
As to ATGAGT, the binding signal with ELF3 was determined as 0.666; with ETV7, 0.773; with ETV6, 0.733.
The corresponding values for TGGAGA are 0.395, 0.454 and 0.443.
The corresponding values for CAAGAG are 0.932, 0.776 and 0.746.
For the sequence AGAGAG, the binding signal with ELF3 was found to be 0.605; in the test with ETV7, 0.628; in the test with ETV6, 0.529.
With CATGGA, the binding signal in the test with ELF3 came out at 0.899; in the test with ETV7, 0.876; with ETV6 it was 0.927.
Consider TCGGCA, for which the binding signal with ELF3 was 0.685; in the test with ETV7 it was 0.747; in the test with ETV6 it was 0.747.
For GGACGA, the binding signal in the test with ELF3 came to 0.618; in the test with ETV7 it was 0.627; with ETV6 it was 0.629.
Take AGAGTC: the results for the binding signal with ELF3, in the test with ETV7 and with ETV6 were 0.453, 0.489 and 0.467, respectively.
For GTGGGC, the binding signal came to 0.538 in the test with ELF3, 0.739 with ETV7 and 0.825 with ETV6.
Take ACGTGT: the results for the binding signal in the test with ELF3, in the test with ETV7 and with ETV6 were 0.623, 0.64 and 0.609, respectively.
For AGTCGT the same measures were 0.397, 0.435 and 0.411.
